# In patent publication US20120245213A1, “HUMAN TYPE I TASTE RECEPTOR SUBUNIT 3 MODULATORS AND METHODS OF USING SAME” (priority 2009, published 2012):
# Some of these results come from one statement about several compounds together.
# Target: T1, human T1R2+T1R3 receptor (Homo sapiens, UniProt Q7RTX0)
# T1 construct: expressed in transfected cells; host or cells: HEK293E
# T1 sequence (Q7RTX0 21-852): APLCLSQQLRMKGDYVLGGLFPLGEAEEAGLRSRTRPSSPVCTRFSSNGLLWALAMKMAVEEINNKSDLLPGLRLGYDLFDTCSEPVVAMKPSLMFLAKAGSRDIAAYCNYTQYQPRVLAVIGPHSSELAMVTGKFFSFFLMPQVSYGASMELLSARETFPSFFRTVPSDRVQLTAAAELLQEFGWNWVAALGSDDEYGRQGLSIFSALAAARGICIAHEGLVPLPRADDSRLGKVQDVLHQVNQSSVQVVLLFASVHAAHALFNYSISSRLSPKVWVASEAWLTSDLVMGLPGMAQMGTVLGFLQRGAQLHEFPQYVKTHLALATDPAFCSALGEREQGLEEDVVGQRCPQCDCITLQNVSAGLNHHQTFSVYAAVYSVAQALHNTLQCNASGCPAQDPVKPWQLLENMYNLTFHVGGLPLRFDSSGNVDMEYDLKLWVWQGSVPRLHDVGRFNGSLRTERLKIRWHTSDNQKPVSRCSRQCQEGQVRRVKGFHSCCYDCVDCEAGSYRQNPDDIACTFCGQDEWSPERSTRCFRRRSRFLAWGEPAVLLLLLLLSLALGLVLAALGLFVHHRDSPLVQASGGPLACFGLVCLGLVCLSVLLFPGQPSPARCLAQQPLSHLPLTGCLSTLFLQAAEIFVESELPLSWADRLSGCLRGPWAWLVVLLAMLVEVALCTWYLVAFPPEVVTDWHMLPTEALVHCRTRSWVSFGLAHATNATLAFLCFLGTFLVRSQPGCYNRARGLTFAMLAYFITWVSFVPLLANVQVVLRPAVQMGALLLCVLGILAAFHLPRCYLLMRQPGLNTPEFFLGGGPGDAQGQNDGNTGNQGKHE
# T1 sequence (Q8TE23 20-839 partner): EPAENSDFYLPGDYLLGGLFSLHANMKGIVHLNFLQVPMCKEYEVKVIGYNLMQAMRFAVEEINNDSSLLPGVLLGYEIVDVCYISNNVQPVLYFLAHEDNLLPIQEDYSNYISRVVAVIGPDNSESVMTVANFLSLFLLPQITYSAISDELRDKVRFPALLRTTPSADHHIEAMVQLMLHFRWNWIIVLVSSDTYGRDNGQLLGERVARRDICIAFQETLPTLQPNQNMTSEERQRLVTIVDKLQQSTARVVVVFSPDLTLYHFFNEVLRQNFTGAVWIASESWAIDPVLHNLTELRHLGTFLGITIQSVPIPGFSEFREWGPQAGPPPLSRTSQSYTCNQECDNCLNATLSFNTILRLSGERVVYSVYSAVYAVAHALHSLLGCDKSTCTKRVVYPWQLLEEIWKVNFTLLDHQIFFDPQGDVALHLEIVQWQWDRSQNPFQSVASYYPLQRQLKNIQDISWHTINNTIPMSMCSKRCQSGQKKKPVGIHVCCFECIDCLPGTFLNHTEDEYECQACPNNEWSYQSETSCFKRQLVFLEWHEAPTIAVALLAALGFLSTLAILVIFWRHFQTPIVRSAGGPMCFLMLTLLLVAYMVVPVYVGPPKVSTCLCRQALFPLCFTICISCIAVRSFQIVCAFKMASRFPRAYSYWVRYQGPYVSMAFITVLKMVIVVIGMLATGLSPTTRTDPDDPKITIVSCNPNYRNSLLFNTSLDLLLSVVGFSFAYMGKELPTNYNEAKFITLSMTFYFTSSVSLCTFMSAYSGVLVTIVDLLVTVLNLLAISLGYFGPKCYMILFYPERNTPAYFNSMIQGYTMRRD
# Experiment: Heterologous calcium mobilization assay, HEK293 cells expressing human sweet receptor
# Type: cell-based
# Details: ratio of T1R3 inhibitory potency
# Experimental: T1R2+T1R3 subunits were transfected into HEK cells along with the promiscuous Gq-type protein G16-gust44. Activation of receptors by agonists was followed using the calcium-sensitive fluorescent dye fluo-4-AM in a 96-well format with the fluorescent microplate reader Flexstation II (Molecular Devices). Inhibitors were added concomitantly with the sweetener sucralose at 2.5 mM (saturating concentration). […] Fluorescence signal (F) is expressed in arbitrary units (AU). The down arrow indicates the injection of the sweetener-inhibitors mixture on the cells. […] Peak calcium signal is expressed as ΔF/F in %, normalized to control (sucralose alone). Data are from a representative experiment, means±SD, done in quadruplicate.
# HEK293E cells were cultured at 37° C. in Optimem GlutaMAX culture medium (Invitrogen) supplemented with 4% dialyzed fetal bovine serum. Cells were transfected with the DNA constructs using lipofectamine-2000 according to the manufacturer's protocol (Invitrogen). […] Sweeteners were added 30 seconds after the start of the scan at 2× concentration in 50 μl of HBSS-H while monitoring fluorescence for an additional 200 seconds at 2 seconds intervals. […]
# The data were expressed as the mean±S.E. of quadruplicate or sextuplicate of the F/F values, or were normalized as described. […]
smiles,measurement,value
"O=C(O)COc1ccc(Cl)cc1Cl [2,4D, (2,4-dichlorophenoxy)acetic acid]","fold potency gain over 4,CPA",2-3 fold
